Reference: patent US20080274096A1, “Fusion Proteins Having a Modulated Half-Life in Plasma” (ASTRAZENECA AB, priority 2005, published 2008)
These are yes or no findings as the source states them, for the method shown. Some results given as binding are weak or reduced against the parent protein; the word gives no strength.

Columns and labels:
[1] = molecular target: IDE-Fc (IgG4) fusion protein (human); experiment: solid-phase extraction from cell supernatant
[2] = molecular target: IDE-Fc (IgG4) fusion protein (human); experiment: Protein A affinity chromatography, low pH elution
[3] = molecular target: Neprilysin-Fc (IgG4) fusion protein (human); experiment: Protein A affinity chromatography, low pH elution
[4] = molecular target: IDE-Fc (IgG4) fusion protein (human); experiment: Protein A affinity chromatography, high salt elution
[5] = molecular target: Neprilysin-Fc (IgG4) fusion protein (human); experiment: as above

Measured: binding

Protein A (Protein A sepharose, GE Healthcare) (from UniProt P38507 37-327)
binds: all assays above
